According to article PMC11117807, “Comparative Study of Field-Effect Transistors Based on Graphene Oxide and CVD Graphene in Highly Sensitive NT-proBNP Aptasensors”:
The exact form of at least one protein or probe is not confirmed. Weaker means in comparison with the reference protein, sequence or condition of that experiment.

Legend:
[1] = molecular target: cardiac troponin I (cTnI) (UniProt P19429); assay: aptamer-functionalised rGO-FET; settings: after long-term storage, low sensitivity; 5'-NH2; 0.01x PBS with Tween (1x PBS: 2.7 mM KCl, 137 mM NaCl, 10 mM phosphate, pH 7.4); LOD in artificial saliva; surface blocked with ethanolamine and BSA; commercial protein; single-stranded DNA
[2] = molecular target: cardiac troponin I (cTnI) (UniProt P19429); assay: aptamer-functionalised CVD graphene FET (GFET); settings: after long-term storage, low sensitivity; 5'-NH2; 0.01x PBS with Tween (1x PBS: 2.7 mM KCl, 137 mM NaCl, 10 mM phosphate, pH 7.4); LOD in artificial saliva; surface blocked with ethanolamine and BSA; commercial protein; single-stranded DNA

GGCAGGAAGACAAACAGGTCGTAGTGGAAACTGTCCACCGTAGACCGGTTATCTAGTGGTCTGTGGTGCTGT [N20a aptamer]
binding result [1]: binds more weakly | binding result [2]: binds more weakly
